Data set [1] is described as follows: Press filtration until no filtrate dropped (filtration time). The conditions noted are these: 100 g (±5%), vacuum ≤ −0.095 MPa, Hastelloy filter dryer 800 mL. The text has this:
(§1) (One) 100 g (±5%) of the crystal form product in Example 1, the crystal form A product, the crystal form B product, the crystal form C product, the crystal form D product, the crystal form E product and the amorphous product of ertapenem sodium were separately taken and subjected to press filtration until no filtrate dropped, followed by drying until a solvent residue satisfied ICH standards. As the crystal form B was obtained by stirring and washing the crystal form A and the crystal form C was obtained by stirring and washing the crystal form B, only the filtration time of the crystal form A was counted. • 2. The press filtration was performed by a same Hastelloy filter dryer (800 mL ϕ=110 mm), it was ensured that the press filtration was performed at a vacuum degree (p) of equal to or less than −0.095 MPa, and meanwhile, an upper port of the filter dryer was protected with nitrogen. • 3. The drying was performed at a temperature of 5-15° C., a nitrogen flow rate of 1-2 m^3/h and a nitrogen humidity of 20-40%.

A short description of data set [2]: Drying until solvent residue satisfied ICH standards (drying time). The conditions noted are these: 5-15° C., nitrogen flow 1-2 m^3/h, nitrogen humidity 20-40%.
From the text: as §1

`C[C@@H](O)[C@H]1C(=O)N2C(C(=O)[O-])=C(S[C@@H]3CN[C@H](C(=O)Nc4cccc(C(=O)O)c4)C3)[C@H](C)[C@H]12.[Na+]` [Crystal form D, ertapenem sodium] displayed a Filtration time in data set [1] of 110 min. This compound also displayed a Drying time in data set [2] of 15 h.
The matching figures for `C[C@@H](O)[C@H]1C(=O)N2C(C(=O)[O-])=C(S[C@@H]3CN[C@H](C(=O)Nc4cccc(C(=O)O)c4)C3)[C@H](C)[C@H]12.[Na+]` [Crystal form A, ertapenem sodium]: 63 min and 35 h.
In turn, `C[C@@H](O)[C@H]1C(=O)N2C(C(=O)[O-])=C(S[C@@H]3CN[C@H](C(=O)Nc4cccc(C(=O)O)c4)C3)[C@H](C)[C@H]12.[Na+]` [Crystal form B, ertapenem sodium] registered a Drying time in data set [2] of 23 h.
Consider `C[C@@H](O)[C@H]1C(=O)N2C(C(=O)[O-])=C(S[C@@H]3CN[C@H](C(=O)Nc4cccc(C(=O)O)c4)C3)[C@H](C)[C@H]12.[Na+]` [Amorphous, ertapenem sodium], for which the Filtration time in data set [1] stood at 117 min. This compound gave a Drying time in data set [2] of 25 h.
The like results for `C[C@@H](O)[C@H]1C(=O)N2C(C(=O)[O-])=C(S[C@@H]3CN[C@H](C(=O)Nc4cccc(C(=O)O)c4)C3)[C@H](C)[C@H]12.[Na+]` [Example 1, ertapenem sodium] were, in that order, 25 min and 9 h.
As to `C[C@@H](O)[C@H]1C(=O)N2C(C(=O)[O-])=C(S[C@@H]3CN[C@H](C(=O)Nc4cccc(C(=O)O)c4)C3)[C@H](C)[C@H]12.[Na+]` [Crystal form C, ertapenem sodium], the Drying time in data set [2] is on record as 11 h.
Turning to `C[C@@H](O)[C@H]1C(=O)N2C(C(=O)[O-])=C(S[C@@H]3CN[C@H](C(=O)Nc4cccc(C(=O)O)c4)C3)[C@H](C)[C@H]12.[Na+]` [Crystal form E, ertapenem sodium], the Filtration time in data set [1] turned out to be 85 min. For the same compound, the Drying time in data set [2] is on record as 17 h.
